Data from article PMC4460036.
No constants are given. Whether binding was seen depends on the method and setting. For part of these data: In cells and extracts the contact can be indirect. Some results given as binding are weak or reduced against the parent protein; the word gives no strength.

Protein sequences, listed by entry. Tags and fused reporters are not part of them. Lines headed by an entry give the natural chain unless they say otherwise; changes in a name come on top. Residues count along the entry.
UniProt Q9HCN6, residues 21-339: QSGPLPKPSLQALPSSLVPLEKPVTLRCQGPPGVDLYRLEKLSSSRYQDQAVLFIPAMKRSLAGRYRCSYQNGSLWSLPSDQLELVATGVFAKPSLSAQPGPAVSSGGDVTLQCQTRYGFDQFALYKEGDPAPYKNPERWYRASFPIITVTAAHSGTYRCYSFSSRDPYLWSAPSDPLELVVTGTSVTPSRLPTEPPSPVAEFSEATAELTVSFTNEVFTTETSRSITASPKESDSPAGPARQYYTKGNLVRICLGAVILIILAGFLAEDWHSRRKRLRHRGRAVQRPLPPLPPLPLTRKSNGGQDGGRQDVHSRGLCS
UniProt P02453: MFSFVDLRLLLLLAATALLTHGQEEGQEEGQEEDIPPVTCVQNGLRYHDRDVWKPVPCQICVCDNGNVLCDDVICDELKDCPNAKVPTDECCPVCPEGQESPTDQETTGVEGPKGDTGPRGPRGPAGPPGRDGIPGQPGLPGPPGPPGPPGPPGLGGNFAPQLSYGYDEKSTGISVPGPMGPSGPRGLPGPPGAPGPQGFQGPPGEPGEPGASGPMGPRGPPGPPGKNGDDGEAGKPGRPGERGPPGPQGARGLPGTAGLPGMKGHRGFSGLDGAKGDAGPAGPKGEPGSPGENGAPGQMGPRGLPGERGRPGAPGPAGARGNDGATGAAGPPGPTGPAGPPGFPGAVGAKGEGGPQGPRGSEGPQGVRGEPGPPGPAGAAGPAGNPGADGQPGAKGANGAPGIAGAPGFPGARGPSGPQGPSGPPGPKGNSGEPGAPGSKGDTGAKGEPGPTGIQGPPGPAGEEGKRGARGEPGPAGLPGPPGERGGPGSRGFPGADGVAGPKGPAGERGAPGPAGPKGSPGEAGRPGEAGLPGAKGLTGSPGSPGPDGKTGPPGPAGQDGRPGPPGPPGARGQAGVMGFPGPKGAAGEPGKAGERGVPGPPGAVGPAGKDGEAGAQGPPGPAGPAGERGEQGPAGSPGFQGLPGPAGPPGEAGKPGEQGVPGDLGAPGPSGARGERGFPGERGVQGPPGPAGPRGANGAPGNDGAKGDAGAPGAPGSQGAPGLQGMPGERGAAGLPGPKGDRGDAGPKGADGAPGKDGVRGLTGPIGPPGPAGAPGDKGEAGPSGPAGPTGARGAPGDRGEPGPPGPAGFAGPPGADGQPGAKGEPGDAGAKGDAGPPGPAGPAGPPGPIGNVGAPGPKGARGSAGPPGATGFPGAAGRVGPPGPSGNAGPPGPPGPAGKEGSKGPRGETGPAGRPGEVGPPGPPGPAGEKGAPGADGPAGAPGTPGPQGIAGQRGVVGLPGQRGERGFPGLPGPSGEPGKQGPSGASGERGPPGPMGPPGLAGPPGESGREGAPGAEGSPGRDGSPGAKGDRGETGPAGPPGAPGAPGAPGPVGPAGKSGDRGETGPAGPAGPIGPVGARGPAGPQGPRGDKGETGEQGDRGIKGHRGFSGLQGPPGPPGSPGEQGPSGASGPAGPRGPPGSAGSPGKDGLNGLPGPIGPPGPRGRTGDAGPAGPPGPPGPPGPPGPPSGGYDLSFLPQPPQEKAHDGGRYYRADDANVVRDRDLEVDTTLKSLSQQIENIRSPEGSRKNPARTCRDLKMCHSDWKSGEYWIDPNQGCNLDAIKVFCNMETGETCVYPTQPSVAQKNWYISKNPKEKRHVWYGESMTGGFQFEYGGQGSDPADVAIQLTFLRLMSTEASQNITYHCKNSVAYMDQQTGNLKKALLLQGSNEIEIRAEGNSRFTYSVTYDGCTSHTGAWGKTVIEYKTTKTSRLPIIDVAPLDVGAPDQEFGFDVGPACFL

Columns and labels:
[1] = biological target: glycoprotein VI (GPVI) on human platelets (human (endogenous in platelets)) (UniProt Q9HCN6); assay: flow cytometry on cells; washed human platelets (treated with PBS, 22 μM losartan or 50 μg.mL^-1 Fab 9O12; pre-stimulated or not with TRAP 20 μM) incubated with 10 μg.mL^-1 FITC-collagen for 20 min at RT, fixed; only the binder purified
[2] = biological target: glycoprotein VI (GPVI) on human platelets (human (endogenous in platelets)) (UniProt Q9HCN6); assay: flow cytometry on cells; washed human platelets, with PBS or 22 μM losartan, stimulated with collagen (10 μg.mL^-1), TRAP (20 μM) or ADP (10 μM) for 20 min; GPVI dimers or oligomers read by the binding of FITC-coupled antibody 9E18
[3] = biological target: glycoprotein VI (GPVI) on human platelets (human (endogenous in platelets)) (UniProt Q9HCN6); assay: proximity ligation; Duolink with 9E18 coupled to PLUS and MINUS probes (5 μg.mL^-1 each); washed platelets, with or without 22 μM losartan, on collagen-coated Lab-Tek chambers 45 min at 37°C, fixed with 4% PFA; dots if probes <40 nm apart

binding [1]	binding [2]	binding [3]	Substance
binds			FITC conjugated type I collagen (from UniProt P02453 162-1217; P02465 80-1117)
	binds	binds	glycoprotein VI (GPVI) on human platelets (from UniProt Q9HCN6 21-339) (receptor)
